Source: paper PMC10458163
Results are given in words; binding and its absence hold for the method and conditions named. In cells and extracts the contact can be indirect. These calls come from enrichment with a bait or labelling near it, and not all partners need be listed. Where a sequence is shown, tags or fusion partners need not be part of it.

Chains of the proteins cited; added tags and fusions are not shown.
UniProt P61088: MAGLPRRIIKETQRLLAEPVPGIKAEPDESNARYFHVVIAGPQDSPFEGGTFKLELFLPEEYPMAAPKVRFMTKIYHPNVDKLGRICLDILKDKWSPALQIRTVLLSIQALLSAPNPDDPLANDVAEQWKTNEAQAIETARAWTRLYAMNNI

Target: T1, Flag-OTUD6A (human) (UniProt Q7L8S5)
T1 sequence: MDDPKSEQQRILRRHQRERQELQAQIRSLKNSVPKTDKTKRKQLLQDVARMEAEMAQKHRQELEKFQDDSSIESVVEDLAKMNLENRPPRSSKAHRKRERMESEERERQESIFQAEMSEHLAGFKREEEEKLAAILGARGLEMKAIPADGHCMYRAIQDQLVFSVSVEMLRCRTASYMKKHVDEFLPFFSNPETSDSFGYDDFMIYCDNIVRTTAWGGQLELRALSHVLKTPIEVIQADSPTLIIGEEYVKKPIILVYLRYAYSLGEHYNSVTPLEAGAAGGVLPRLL
Assay: affinity purification with mass spectrometry; Flag-OTUD6A or empty vector overexpressed in HEK 293 cells, enriched with Flag antibody (FLAG-M2 beads), mass spectrometry

In the case of “ubiquitin-conjugating enzyme UBE2N (UBC13) (from UniProt P61088 1-152)”, the binding is reported as “binds”.
